Results taken from PubChem BioAssay AID256 (DTP/NCI, 2004).
The list is a part of this screen's results and no random one: it is rich in T/C values a quarter to a half above the control, in often repeated tests (any T/C) and in doses without a T/C. Further doses and runs are listed elsewhere. T/C is the treated group as % of the vehicle group. Some entries give survivors of the animals treated and no T/C: the source holds a T/C of zero for them, seemingly a mark for toxic or unscored doses. Some survivor counts are full or nearly so, which does not show that the dose was tolerated: survival well below the control is almost never listed, so the zero probably covers shortened survival too. Counts of survivors are from the toxicity check (mostly the fifth day) where no day follows; animals may have died later. Schedules are NCI's codes, taken here to give the interval after Q, in days (D) or hours (H), and the number of doses after X. Signs of the kind (2×) stand for listed records that agree. Some doses were run more than once; the values are given in rising order. For survival time, the PubChem record calls one and a half times the control and up active, and a quarter to a half above the control has no call in these data; cut-offs in other NCI protocols can differ.

System: CD2F1 mice, L1210 leukemia ip, survival T/C
Test: NCI In Vivo Anticancer Drug Screen. Data for tumor model L1210 Leukemia (intraperitoneal) in CD2F1 (CDF1) mice
Settings: higher T/C = longer survival
Procedure, shortened: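 In this screen, transplantable tumors were grown in mice given either the compound or its vehicle. Results were expressed as the treated measurement relative to the control measurement.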

[1] = T/C endpoint: mean survival time, dose: 200.0 mg/kg/injection, schedule: Q04DX003 (ip), vehicle: saline with Tween-80
[2] = T/C endpoint: mean survival time, dose: 400.0 mg/kg/injection, schedule: Q04DX003 (ip), vehicle: saline with Tween-80
[3] = T/C endpoint: mean survival time, dose: 75.0 mg/kg/injection, schedule: Q01DX001 (ip), vehicle: saline
[4] = T/C endpoint: mean survival time, dose: 150.0 mg/kg/injection, schedule: Q01DX001 (ip), vehicle: saline
[5] = T/C endpoint: mean survival time, dose: 300.0 mg/kg/injection, schedule: Q01DX001 (ip), vehicle: saline
[6] = T/C endpoint: mean survival time, dose: 400.0 mg/kg/injection, schedule: Q04DX002 (ip), vehicle: saline with Tween-80

In the case of `CN(C)c1ccc(Nc2c3ccccc3nc3ccccc23)cc1`, the T/C (T/C endpoint: mean survival time, dose: 60.0 mg/kg/injection, schedule: Q03HX040 (oral), vehicle: saline) is reported as 133 % of control, the T/C (T/C endpoint: mean survival time, dose: 150.0 mg/kg/injection, schedule: Q03HX016 (oral), vehicle: saline) is reported as 142 % of control and the T/C (T/C endpoint: mean survival time, dose: 150.0 mg/kg/injection, schedule: Q03HX024 (oral), vehicle: saline) is reported as 132 % of control. The survivor count (T/C endpoint: mean survival time, dose: 240.0 mg/kg/injection, schedule: Q03HX040 (oral), vehicle: saline) was 8 of 10, the survivor count (T/C endpoint: mean survival time, dose: 300.0 mg/kg/injection, schedule: Q03HX008 (oral), vehicle: saline) was 6 of 10 and the survivor count (T/C endpoint: mean survival time, dose: 300.0 mg/kg/injection, schedule: Q03HX024 (oral), vehicle: saline) was 8 of 10. For the same compound, the survivor count (T/C endpoint: mean survival time, dose: 480.0 mg/kg/injection, schedule: Q03HX040 (oral), vehicle: saline) was 0 of 10, the survivor count (T/C endpoint: mean survival time, dose: 600.0 mg/kg/injection, schedule: Q03HX008 (oral), vehicle: saline) was 0 of 10 and the survivor count (T/C endpoint: mean survival time, dose: 600.0 mg/kg/injection, schedule: Q03HX016 (oral), vehicle: saline) was 0 of 10. For the same compound, the survivor count (T/C endpoint: mean survival time, dose: 600.0 mg/kg/injection, schedule: Q03HX024 (oral), vehicle: saline) was 0 of 10, the survivor count (T/C endpoint: mean survival time, dose: 1200.0 mg/kg/injection, schedule: Q03HX008 (oral), vehicle: saline) was 0 of 10 and the survivor count (T/C endpoint: mean survival time, dose: 1200.0 mg/kg/injection, schedule: Q03HX016 (oral), vehicle: saline) was 0 of 10. For the same compound, the survivor count (T/C endpoint: mean survival time, dose: 1200.0 mg/kg/injection, schedule: Q03HX024 (oral), vehicle: saline) was 0 of 10, the T/C (T/C endpoint: median survival time, dose: 22.5 mg/kg/injection, schedule: Q01DX009 (ip), vehicle: saline) was 142 % of control and the survivor count (T/C endpoint: median survival time, dose: 180.0 mg/kg/injection, schedule: Q01DX009 (ip), vehicle: saline) was 0 of 6 and 1 of 6.

In the case of `Clc1ccc(N=C/C=C/c2ccccc2)cc1`, the survivor count (T/C endpoint: mean survival time, dose: 200.0 mg/kg/injection, schedule: Q04DX003 (ip), vehicle: other) is reported as 6 of 6.

For `N#Cc1c(-c2ccccc2)c(-c2ccccc2)nn(CC(=O)O)c1=O`, the survivor count (T/C endpoint: median survival time, dose: 400.0 mg/kg/injection, schedule: Q01DX005 (ip), vehicle: distilled water + Tween-80) was 3 of 6.

`COC(=O)C=P(c1ccccc1)(c1ccccc1)c1ccccc1` was tested, and the survivor count (T/C endpoint: mean survival time, dose: 100.0 mg/kg/injection, schedule: Q04DX003 (ip), vehicle: saline with Tween-80) was 1 of 6, the survivor count [1] was 0 of 6 and 1 of 6 and the survivor count [2] was 0 of 6 (2×).

For `c1ccc(C[As+](c2ccccc2)(c2ccccc2)c2ccccc2)cc1`, the survivor count (T/C endpoint: mean survival time, dose: 50.0 mg/kg/injection, schedule: Q04DX002 (ip), vehicle: saline with Tween-80) was 1 of 3 and the survivor count (T/C endpoint: mean survival time, dose: 100.0 mg/kg/injection, schedule: Q04DX002 (ip), vehicle: saline with Tween-80) was 0 of 3.

For `N#CCS(=O)(=O)c1ccccc1`, the survivor count (T/C endpoint: mean survival time, dose: 100.0 mg/kg/injection, schedule: Q01DX001 (ip), vehicle: saline with Tween-80) was 0 of 6 and the survivor count (T/C endpoint: mean survival time, dose: 200.0 mg/kg/injection, schedule: Q01DX001 (ip), vehicle: saline with Tween-80) was 0 of 6.

`CN(C)CCNc1ccc(O)c2c1C(=O)c1ccccc1C2=O` was tested, and the T/C (T/C endpoint: mean survival time, dose: 160.0 mg/kg/injection, schedule: Q01DX009 (ip), vehicle: saline with Tween-80) was 139 % of control.

`CCCNCCNc1ccc(NCCNCCC)c2c1C(=O)c1ccccc1C2=O` was tested, and the survivor count (T/C endpoint: mean survival time, dose: 64.0 mg/kg/injection, schedule: Q01DX009 (ip), vehicle: acid diluted with saline) was 1 of 6.

`C[n+]1ccc2ccccc2c1CCCc1nccc2ccccc12` was tested, and the survivor count (T/C endpoint: mean survival time, dose: 100.0 mg/kg/injection, schedule: Q04DX003 (ip), vehicle: saline sonified) was 1 of 6, the survivor count (T/C endpoint: mean survival time, dose: 200.0 mg/kg/injection, schedule: Q04DX003 (ip), vehicle: saline sonified) was 0 of 6 and the survivor count (T/C endpoint: mean survival time, dose: 400.0 mg/kg/injection, schedule: Q04DX003 (ip), vehicle: saline sonified) was 0 of 6.

With `O=P(O)(O)OP(=O)(O)OCC1OC(n2cnc3c(=S)nc[nH]c32)C(O)C1O` (stereo not given) the T/C (T/C endpoint: mean survival time, dose: 100.0 mg/kg/injection, schedule: Q01DX009 (ip), vehicle: saline sonified) was 126 % of control.

In the case of `CCOC(=O)C1=C(C)NC(C)=C(C(=O)OCC)C1c1cccc([N+](=O)[O-])c1`, the survivor count (T/C endpoint: mean survival time, dose: 400.0 mg/kg/injection, schedule: Q01DX009 (ip), vehicle: Klucel (hydroxypropylcellulose) (HPC)) is reported as 3 of 6.

`CCC[CH2][Sn]1([CH2]CCC)[O]C2C(CO)OC(n3ccc4c(N)ncnc43)C2[O]1` (stereo not given) was tested, and the survivor count (T/C endpoint: mean survival time, dose: 6.25 mg/kg/injection, schedule: Q01DX005 (ip), vehicle: other) was 0 of 6, the survivor count (T/C endpoint: mean survival time, dose: 6.25 mg/kg/injection, schedule: Q01DX005 (ip), vehicle: water) was 6 of 6 and the survivor count (T/C endpoint: mean survival time, dose: 12.5 mg/kg/injection, schedule: Q01DX005 (ip), vehicle: other) was 0 of 6. For the same compound, the survivor count (T/C endpoint: mean survival time, dose: 25.0 mg/kg/injection, schedule: Q01DX005 (ip), vehicle: other) was 0 of 6.

`CN(C)N=Nc1cccnc1` was tested, and the T/C [3] was 125 % of control, the survivor count [4] was 3 of 6 and the survivor count [5] was 0 of 6.

For `C=C[CH2][Sn]([c]1ccccc1)([c]1ccccc1)[c]1ccccc1`, the survivor count (T/C endpoint: mean survival time, dose: 25.0 mg/kg/injection, schedule: Q04DX003 (ip), vehicle: saline with Tween-80) was 3 of 3.

For `Cc1ccc(S(=O)(=O)CC(=O)O)cc1`, the survivor count [2] was 3 of 3.

`CN1CC(NC(=O)N(CCCl)N=O)CC2c3cccc4c3c(cn4N=O)CC21` (stereo not given) was tested, and the T/C (T/C endpoint: mean survival time, dose: 100.0 mg/kg/injection, schedule: Q01DX001 (ip), vehicle: other) was 144 % of control.

For `COC(=O)/C([O-])=C(\C(=O)OC)[n+]1cc(Br)cc2ccccc21`, the survivor count [6] was 1 of 3.

`COc1ccc(C(=O)NN)cc1` was tested, and the survivor count [1] was 3 of 6 and the survivor count [2] was 4 of 6.

For `O=C(/C=C(\Cl)C(=O)NO)NO`, the survivor count (T/C endpoint: mean survival time, dose: 200.0 mg/kg/injection, schedule: Q01DX009 (ip), vehicle: saline) was 4 of 10 and 3 of 6.

For `CCCCCCOC(CN(C)C)C(Cl)(Cl)Cl` (stereo not given), the survivor count (T/C endpoint: mean survival time, dose: 400.0 mg/kg/injection, schedule: Q01DX009 (ip), vehicle: saline with Tween-80) was 0 of 6.

With `[CH3][Pb]([CH3])([CH3])[O]C(=O)CCl` the survivor count (T/C endpoint: mean survival time, dose: 6.25 mg/kg/injection, schedule: Q01DX009 (ip), vehicle: saline) was 5 of 6, the survivor count (T/C endpoint: mean survival time, dose: 12.5 mg/kg/injection, schedule: Q01DX009 (ip), vehicle: saline) was 3 of 6 and the survivor count (T/C endpoint: mean survival time, dose: 25.0 mg/kg/injection, schedule: Q01DX009 (ip), vehicle: saline) was 0 of 6.

In the case of `CC1CCCC(C)N1c1ccc(NC(=O)c2ccc(C(=O)Nc3ccc(N4C(C)CCCC4C)cc3)cc2)cc1` (stereo not given), the survivor count (T/C endpoint: mean survival time, dose: 200.0 mg/kg/injection, schedule: Q01DX001 (ip), vehicle: saline) is reported as 4 of 4 and the survivor count (T/C endpoint: mean survival time, dose: 400.0 mg/kg/injection, schedule: Q01DX001 (ip), vehicle: saline) is reported as 4 of 4.

In the case of `CCOC(=O)Nc1cccc([N+](=O)[O-])c1`, the survivor count (T/C endpoint: mean survival time, dose: 400.0 mg/kg/injection, schedule: Q01DX009 (ip), vehicle: other) is reported as 1 of 6.

With `CC(=O)OC1CCC2(C)C3=CCC4(C)C(C(C)/C=C\C(C)C(C)C)CCC4C34C=CC2(C1)C1C(=O)OC(=O)C14` (stereo not given) the survivor count (T/C endpoint: mean survival time, dose: 200.0 mg/kg/injection, schedule: Q04DX002 (ip), vehicle: saline with Tween-80) was 3 of 3 and the survivor count [6] was 3 of 3.

For `[Cl][Pt+2][Cl].[NH-]CC([NH-])c1ccc2oc3ccccc3c2c1` (stereo not given), the survivor count (T/C endpoint: median survival time, dose: 160.0 mg/kg/injection, schedule: Q04DX003 (ip), vehicle: saline with Tween-80) was 0 of 6 and the survivor count (T/C endpoint: median survival time, dose: 320.0 mg/kg/injection, schedule: Q04DX003 (ip), vehicle: saline with Tween-80) was 0 of 6.

For `CC1=C(N=[N+]=[N-])C(=O)c2ccccc2C1=O`, the survivor count [6] was 0 of 3.

`CCCCCCCCCCC(=O)OCC1OC2C(Oc3nc(=N)ccn32)C1OC(=O)CCCCCCCCCC` (stereo not given) was tested, and the survivor count (T/C endpoint: mean survival time, dose: 200.0 mg/kg/injection, schedule: Q01DX009 (ip), vehicle: water) was 2 of 6.

In the case of `O=C(Nc1ccc([N+](=O)[O-])cc1)OCC#CC#CCOC(=O)Nc1ccc([N+](=O)[O-])cc1`, the survivor count (T/C endpoint: mean survival time, dose: 400.0 mg/kg/injection, schedule: Q04DX003 (ip), vehicle: Klucel (hydroxypropylcellulose) (HPC)) is reported as 1 of 6.

With `CC(=O)[O-].c1cc[c]([Sb+]([c]2ccccc2)([c]2ccccc2)[c]2ccccc2)cc1` the survivor count [3] was 0 of 6, the survivor count [4] was 0 of 6 and the survivor count [5] was 0 of 6.

For `CCOC(=O)c1ccc(OC(=O)Nc2ccc(Cl)cc2)cc1`, the survivor count [2] was 6 of 6.

For `CCCCP(=O)(O)O`, the survivor count (T/C endpoint: mean survival time, dose: 400.0 mg/kg/injection, schedule: Q01DX001 (ip), vehicle: saline with Tween-80) was 1 of 6.

In the case of `CS(=O)(=O)CS(=O)(=O)OCCF`, the survivor count (T/C endpoint: median survival time, dose: 50.0 mg/kg/injection, schedule: Q01DX009 (ip), vehicle: saline) is reported as 0 of 6 and 5 of 6.
